Publication PMC5714946
Results are given in words; binding and its absence hold for the method and conditions named. In cells and extracts the contact can be indirect. Some binding calls cover weakened binding; strength is not graded here.

The chains behind the UniProt entries cited, without tags or fusion partners.
UniProt Q96D31: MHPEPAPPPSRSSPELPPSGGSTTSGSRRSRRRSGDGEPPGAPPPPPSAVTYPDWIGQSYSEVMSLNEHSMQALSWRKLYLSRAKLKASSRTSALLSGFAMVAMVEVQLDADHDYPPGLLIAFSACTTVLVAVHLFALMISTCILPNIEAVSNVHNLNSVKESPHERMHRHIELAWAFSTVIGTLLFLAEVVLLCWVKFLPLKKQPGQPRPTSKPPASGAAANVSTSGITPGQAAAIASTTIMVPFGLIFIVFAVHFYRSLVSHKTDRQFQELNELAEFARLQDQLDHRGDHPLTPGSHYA

Target: T1, Amnionless (human (endogenous in PTECs)) (UniProt Q9BXJ7)
T1 sequence: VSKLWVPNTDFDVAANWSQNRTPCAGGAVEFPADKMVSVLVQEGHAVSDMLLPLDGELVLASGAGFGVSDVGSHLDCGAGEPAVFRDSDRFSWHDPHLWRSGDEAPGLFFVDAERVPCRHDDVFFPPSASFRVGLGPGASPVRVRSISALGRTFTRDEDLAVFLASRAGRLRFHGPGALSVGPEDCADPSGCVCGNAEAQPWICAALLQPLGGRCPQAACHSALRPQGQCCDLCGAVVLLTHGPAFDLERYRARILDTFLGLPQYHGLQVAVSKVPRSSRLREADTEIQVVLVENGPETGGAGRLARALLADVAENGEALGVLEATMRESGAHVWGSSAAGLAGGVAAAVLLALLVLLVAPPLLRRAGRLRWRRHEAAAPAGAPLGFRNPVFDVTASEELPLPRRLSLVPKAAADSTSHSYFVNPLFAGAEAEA
Experiment: co-IP; endogenously expressed STIM1, ORAI1 and AMN in PTECs, with/without thapsigargin (TG) treatment (replete or depleted Ca2+ stores); Pierce Classic IP Kit; rabbit anti-STIM1, rabbit anti-Orai1 and mouse anti-AMN antibodies

binding: binds
Substance: ORAI1 (from UniProt Q96D31 1-301)
